± gives the standard deviation of the averaged measurements. The list shows a part of the results.

By UniProt entry, the sequences of proteins in these tests, tags left out. Where a name states a change or a piece, a line headed by the entry shows the natural chain unless it says otherwise.
UniProt A8MW92: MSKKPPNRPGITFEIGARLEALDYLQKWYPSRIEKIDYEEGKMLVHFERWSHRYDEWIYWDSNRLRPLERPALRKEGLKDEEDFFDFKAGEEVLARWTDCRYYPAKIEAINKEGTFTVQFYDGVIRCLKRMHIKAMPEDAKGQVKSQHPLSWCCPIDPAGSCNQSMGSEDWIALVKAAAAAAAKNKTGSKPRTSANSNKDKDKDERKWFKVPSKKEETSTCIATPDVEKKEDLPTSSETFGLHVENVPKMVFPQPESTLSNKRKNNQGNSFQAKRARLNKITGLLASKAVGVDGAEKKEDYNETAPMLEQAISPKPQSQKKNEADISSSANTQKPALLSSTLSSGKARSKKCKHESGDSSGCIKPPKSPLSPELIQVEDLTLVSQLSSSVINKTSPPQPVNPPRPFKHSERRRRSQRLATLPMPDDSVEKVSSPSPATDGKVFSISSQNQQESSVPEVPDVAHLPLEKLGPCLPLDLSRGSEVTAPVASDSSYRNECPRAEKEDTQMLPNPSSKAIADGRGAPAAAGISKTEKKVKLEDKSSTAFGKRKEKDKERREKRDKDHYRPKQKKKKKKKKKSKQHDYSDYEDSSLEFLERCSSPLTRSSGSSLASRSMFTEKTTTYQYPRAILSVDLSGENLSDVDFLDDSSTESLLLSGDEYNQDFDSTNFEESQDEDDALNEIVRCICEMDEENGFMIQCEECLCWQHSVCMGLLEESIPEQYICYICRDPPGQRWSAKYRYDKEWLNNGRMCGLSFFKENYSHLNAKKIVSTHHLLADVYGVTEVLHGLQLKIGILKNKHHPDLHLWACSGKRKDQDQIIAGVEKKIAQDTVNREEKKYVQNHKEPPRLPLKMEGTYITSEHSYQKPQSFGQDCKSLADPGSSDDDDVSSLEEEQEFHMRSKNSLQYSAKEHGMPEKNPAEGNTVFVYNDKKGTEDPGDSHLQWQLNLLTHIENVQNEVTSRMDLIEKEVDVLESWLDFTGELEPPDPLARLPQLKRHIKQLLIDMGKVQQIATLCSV
UniProt Q5T8I9: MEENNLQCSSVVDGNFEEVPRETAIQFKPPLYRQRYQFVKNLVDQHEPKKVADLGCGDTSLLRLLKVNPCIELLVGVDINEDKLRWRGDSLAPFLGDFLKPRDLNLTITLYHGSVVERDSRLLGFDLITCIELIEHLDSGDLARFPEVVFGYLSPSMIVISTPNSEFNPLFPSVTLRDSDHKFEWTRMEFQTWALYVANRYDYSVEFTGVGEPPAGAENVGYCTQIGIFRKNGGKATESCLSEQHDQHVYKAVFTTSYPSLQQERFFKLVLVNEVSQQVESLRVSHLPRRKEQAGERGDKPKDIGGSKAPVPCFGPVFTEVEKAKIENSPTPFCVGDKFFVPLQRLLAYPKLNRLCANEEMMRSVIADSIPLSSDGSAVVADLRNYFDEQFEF
UniProt P30566: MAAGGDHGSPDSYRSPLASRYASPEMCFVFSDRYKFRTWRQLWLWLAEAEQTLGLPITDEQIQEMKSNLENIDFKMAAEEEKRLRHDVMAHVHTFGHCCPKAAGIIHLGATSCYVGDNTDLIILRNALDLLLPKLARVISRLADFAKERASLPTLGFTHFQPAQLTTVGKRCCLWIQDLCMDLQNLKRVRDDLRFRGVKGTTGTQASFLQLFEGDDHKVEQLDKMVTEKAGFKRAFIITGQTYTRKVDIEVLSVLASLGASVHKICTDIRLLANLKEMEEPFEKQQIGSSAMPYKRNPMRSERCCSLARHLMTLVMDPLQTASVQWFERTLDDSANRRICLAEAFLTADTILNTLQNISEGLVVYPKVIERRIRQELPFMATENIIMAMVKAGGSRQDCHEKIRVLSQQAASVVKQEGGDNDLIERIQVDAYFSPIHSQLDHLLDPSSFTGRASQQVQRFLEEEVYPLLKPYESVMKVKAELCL
UniProt Q03518, whole entry: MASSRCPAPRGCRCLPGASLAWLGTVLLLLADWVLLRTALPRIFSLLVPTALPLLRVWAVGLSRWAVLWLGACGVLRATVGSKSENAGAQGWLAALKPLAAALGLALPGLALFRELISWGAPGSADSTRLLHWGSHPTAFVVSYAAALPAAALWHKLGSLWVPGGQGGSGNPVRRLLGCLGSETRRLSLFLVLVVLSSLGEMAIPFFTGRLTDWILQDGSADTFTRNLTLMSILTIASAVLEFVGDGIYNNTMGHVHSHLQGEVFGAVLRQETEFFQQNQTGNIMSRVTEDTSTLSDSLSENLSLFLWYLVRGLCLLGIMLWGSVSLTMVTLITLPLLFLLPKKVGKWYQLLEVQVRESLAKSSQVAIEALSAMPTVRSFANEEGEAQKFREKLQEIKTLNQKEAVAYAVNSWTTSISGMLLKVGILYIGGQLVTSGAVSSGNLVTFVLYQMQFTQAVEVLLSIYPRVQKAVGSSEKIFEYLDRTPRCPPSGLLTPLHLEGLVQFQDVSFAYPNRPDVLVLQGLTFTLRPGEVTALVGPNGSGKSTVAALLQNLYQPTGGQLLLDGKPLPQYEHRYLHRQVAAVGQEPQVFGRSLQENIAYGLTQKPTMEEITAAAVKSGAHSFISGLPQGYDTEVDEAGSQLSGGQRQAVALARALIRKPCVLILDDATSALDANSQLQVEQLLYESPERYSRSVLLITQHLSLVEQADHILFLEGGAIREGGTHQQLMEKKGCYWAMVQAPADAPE
UniProt Q92614: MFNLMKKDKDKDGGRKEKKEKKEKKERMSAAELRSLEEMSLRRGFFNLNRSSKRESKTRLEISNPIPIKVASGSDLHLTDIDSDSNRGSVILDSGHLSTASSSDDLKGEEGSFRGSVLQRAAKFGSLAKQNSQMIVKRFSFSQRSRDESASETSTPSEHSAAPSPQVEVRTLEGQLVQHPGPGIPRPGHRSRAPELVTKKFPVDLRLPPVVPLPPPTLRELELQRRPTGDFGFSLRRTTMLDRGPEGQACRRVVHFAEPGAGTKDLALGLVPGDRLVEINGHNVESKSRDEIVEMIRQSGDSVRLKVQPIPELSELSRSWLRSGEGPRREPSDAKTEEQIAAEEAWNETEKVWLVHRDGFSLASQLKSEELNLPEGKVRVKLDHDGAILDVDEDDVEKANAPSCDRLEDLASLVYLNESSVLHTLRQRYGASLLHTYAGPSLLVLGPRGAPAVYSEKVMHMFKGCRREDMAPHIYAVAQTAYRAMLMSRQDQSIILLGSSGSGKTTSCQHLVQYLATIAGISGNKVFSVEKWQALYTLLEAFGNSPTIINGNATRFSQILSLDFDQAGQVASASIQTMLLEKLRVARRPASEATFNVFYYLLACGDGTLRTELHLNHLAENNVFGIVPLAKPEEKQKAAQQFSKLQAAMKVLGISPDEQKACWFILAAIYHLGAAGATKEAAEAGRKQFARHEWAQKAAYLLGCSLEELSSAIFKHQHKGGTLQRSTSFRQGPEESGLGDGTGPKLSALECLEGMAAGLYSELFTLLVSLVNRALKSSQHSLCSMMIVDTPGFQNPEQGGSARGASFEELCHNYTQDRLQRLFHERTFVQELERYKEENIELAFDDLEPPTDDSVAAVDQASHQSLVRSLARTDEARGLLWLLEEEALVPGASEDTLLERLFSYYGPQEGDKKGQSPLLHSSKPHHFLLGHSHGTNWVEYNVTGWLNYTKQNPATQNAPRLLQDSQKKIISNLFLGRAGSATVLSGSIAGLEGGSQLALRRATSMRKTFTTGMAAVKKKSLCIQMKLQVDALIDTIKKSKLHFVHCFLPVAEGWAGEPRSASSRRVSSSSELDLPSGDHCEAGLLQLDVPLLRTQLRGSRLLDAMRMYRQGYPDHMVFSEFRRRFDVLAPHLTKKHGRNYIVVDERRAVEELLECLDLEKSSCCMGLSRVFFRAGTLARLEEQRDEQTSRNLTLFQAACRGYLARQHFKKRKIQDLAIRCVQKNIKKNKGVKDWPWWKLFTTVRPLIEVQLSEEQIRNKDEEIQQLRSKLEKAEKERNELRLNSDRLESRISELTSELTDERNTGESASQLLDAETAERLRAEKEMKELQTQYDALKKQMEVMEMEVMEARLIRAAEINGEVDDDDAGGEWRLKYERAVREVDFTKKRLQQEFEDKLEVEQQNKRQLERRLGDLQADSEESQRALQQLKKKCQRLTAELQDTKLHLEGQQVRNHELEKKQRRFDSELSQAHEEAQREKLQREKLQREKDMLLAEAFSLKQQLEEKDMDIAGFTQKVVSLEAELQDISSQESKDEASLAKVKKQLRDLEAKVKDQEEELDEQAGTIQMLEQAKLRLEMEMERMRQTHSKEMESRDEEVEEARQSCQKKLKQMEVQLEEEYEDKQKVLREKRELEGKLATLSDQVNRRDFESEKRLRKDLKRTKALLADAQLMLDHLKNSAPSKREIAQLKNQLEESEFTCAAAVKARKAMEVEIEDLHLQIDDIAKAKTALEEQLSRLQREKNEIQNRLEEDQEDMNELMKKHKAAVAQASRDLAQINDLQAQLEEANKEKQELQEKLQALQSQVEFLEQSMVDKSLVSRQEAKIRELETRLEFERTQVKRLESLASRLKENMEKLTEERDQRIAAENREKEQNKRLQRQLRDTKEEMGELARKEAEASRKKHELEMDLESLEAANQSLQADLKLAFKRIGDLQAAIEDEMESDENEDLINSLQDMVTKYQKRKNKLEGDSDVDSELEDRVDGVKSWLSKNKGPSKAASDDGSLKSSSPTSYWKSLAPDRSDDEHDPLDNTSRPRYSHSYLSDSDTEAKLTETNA
UniProt Q9UJZ1: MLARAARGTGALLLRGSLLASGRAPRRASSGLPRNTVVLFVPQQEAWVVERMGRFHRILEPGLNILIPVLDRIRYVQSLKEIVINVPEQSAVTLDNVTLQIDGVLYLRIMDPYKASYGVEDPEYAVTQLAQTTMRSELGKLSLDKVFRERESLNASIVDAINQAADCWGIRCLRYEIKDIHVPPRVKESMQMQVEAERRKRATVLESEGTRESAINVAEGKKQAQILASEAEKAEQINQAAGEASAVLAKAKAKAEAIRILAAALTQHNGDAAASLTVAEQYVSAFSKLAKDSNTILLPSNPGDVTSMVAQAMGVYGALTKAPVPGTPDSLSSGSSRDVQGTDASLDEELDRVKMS
UniProt A0JNW5: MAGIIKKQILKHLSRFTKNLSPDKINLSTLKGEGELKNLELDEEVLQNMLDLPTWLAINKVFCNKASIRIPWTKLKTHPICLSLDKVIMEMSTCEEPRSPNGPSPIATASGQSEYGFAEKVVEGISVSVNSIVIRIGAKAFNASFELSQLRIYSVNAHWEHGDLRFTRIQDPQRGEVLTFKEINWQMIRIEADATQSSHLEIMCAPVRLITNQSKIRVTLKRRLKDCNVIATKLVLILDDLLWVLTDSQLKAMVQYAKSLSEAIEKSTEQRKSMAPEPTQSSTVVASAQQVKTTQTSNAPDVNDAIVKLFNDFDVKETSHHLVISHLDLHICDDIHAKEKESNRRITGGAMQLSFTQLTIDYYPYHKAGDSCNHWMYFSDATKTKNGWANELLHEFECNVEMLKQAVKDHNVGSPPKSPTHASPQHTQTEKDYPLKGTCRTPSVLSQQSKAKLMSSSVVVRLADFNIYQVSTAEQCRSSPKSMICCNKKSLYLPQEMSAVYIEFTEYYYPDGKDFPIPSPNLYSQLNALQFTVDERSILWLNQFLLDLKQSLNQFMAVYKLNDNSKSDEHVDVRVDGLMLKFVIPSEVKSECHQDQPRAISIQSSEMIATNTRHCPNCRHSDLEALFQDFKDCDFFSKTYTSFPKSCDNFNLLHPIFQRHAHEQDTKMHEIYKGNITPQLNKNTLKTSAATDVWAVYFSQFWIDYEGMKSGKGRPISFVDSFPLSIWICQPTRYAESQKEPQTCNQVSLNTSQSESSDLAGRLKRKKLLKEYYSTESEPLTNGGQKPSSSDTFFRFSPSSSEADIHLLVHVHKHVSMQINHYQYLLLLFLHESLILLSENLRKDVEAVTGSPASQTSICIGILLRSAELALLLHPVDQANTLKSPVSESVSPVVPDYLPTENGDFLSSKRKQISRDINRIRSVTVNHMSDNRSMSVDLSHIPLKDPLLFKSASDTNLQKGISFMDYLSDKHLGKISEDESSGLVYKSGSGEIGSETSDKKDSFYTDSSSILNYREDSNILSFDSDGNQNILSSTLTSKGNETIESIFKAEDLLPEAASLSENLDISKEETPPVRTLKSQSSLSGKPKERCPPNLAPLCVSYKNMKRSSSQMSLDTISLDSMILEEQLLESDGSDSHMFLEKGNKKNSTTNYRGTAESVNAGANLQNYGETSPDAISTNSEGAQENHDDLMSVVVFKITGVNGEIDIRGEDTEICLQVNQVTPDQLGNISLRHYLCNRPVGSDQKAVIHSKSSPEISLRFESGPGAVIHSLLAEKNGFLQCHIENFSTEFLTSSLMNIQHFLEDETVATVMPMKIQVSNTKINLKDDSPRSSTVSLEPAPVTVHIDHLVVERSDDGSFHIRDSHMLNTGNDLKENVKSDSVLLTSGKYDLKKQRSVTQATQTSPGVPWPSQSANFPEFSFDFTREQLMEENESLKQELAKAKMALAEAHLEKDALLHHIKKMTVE

Compound in one assay: Nc1nc2c(ncn2[C@@H]2O[C@H](COP(=O)(O)OP(=O)(O)OP(=O)(O)O)[C@@H](O)[C@H]2O)c(=O)[nH]1 [guanosine triphosphate]
In words: NP40-soluble protein abundance relative to vehicle (solubility fold change) (ratio); higher = more soluble protein in presence of GTP. As to conditions: concentration: 2mM. In a few lines:
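Data come from three independent experiments in which Dounce-homogenised Jurkat crude lysate was treated at eight concentrations from 0.1 to 10 mM. Treatment ran 10 min at room temperature and then 3 min at 37 °C, after which 0.8% NP40 and benzonase were added for 60 min at 4 °C before ultracentrifugation. The supernatant underwent TMT labelling and LC-MS/MS, and vsn-normalised intensities were expressed as fold change against the detergent-processed vehicle in each replicate.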
For the target “A0A096LP75|C4AMC7 and related entries (UniProt Q6VEQ5+C4AMC7)”, the NP40-soluble protein abundance worked out at 1.019 ± 0.0057.

Consider A0A140T9R1|O75955 (UniProt O75955), for which the NP40-soluble protein abundance was found to be 1.15 ± 0.13.

Consider “A0A0A0MQS0|A8MW92 and related entries (UniProt A8MW92)”, for which the NP40-soluble protein abundance was found to be 1.24 ± 0.015.

Regarding A0A0C4DGT4|Q643R3 (UniProt Q643R3), the NP40-soluble protein abundance was 0.973 ± 0.1.

As for A0A0C4DGV9|P49917 (UniProt P49917), the NP40-soluble protein abundance is 1.27 ± 0.26.

On to “A0A087X127|E7EWM3 and related entries (UniProt Q8NF64)”, for which the NP40-soluble protein abundance came out at 0.9 ± 0.076.

CCDC88B (UniProt A6NC98): the NP40-soluble protein abundance came out at 1 ± 0.036.

“A0A0A0MRC4|A0A0A0MSK4|Q86YR5 and related entries (UniProt Q86YR5)”: the NP40-soluble protein abundance amounted to 0.947 ± 0.041.

In the case of “A0A087WZ62|Q9H6U8 and related entries (UniProt Q9H6U8)”, the NP40-soluble protein abundance turned out to be 0.93 ± 0.029.

In the case of “A0A0D9SFR6|Q86XP1 and related entries (UniProt Q86XP1)”, the NP40-soluble protein abundance was 0.937 ± 0.067.

As for A0A087WXN9|Q765P7 (UniProt Q765P7), the NP40-soluble protein abundance came to 1.04 ± 0.16.

For the target “A0A5E8 and related entries (UniProt Q99501)”, the NP40-soluble protein abundance worked out at 1.3 ± 0.15.

Take “A0A0A6YYC7|Q96JP5 and related entries (UniProt Q96JP5)”: the NP40-soluble protein abundance is 0.956 ± 0.058.

Consider A0A0A0MRN1|Q5T8I9 (UniProt Q5T8I9), for which the NP40-soluble protein abundance amounted to 0.93 ± 0.08.

In the case of UniProt A2RTX5 and related entries, the NP40-soluble protein abundance turned out to be 1.31 ± 0.07.

Turning to “A0A0A0MRE5|Q9ULH1 and related entries (UniProt Q9ULH1)”, the NP40-soluble protein abundance was determined as 1.02 ± 0.082.

With “A0A0A0MQU0|K7EIR0 and related entries (UniProt Q9BV38)”, the NP40-soluble protein abundance was determined as 0.965 ± 0.05.

As to “A6NCC9 and related entries (UniProt Q9Y5U2)”, the NP40-soluble protein abundance was 1.13 ± 0.034.

A0A096LPA2|P30566 (UniProt P30566): the NP40-soluble protein abundance was determined as 0.92 ± 0.095.

In the case of “A0A0A0MS45|J3KNI1 and related entries (UniProt Q9H9E3)”, the NP40-soluble protein abundance came to 1.04 ± 0.12.

Turning to A0A0C4DFX9|Q9H3P2 (UniProt Q9H3P2), the NP40-soluble protein abundance is 0.948 ± 0.055.

For the target “A0A087X0H7|Q8NEL9 and related entries (UniProt Q8NEL9)”, the NP40-soluble protein abundance was 1.03 ± 0.078.

Turning to A0A140T9T7|Q03518 (UniProt Q03518), the NP40-soluble protein abundance came out at 1.02 ± 0.035.

Regarding “A0A0D9SFK2|Q92614 and related entries (UniProt Q92614)”, the NP40-soluble protein abundance was 1.02 ± 0.071.

Turning to UniProt A3KMH1 and related entries, the NP40-soluble protein abundance is 1.05 ± 0.14.

For “A0A0A0MSQ0|H7C4N2 and related entries (UniProt P13797)”, the NP40-soluble protein abundance was determined as 0.949 ± 0.056.

On to A0A0X1KG71|Q8WX92 (UniProt Q8WX92), for which the NP40-soluble protein abundance worked out at 0.973 ± 0.016.

For “A0A0C4DGS5|Q08379 and related entries (UniProt Q08379)”, the NP40-soluble protein abundance worked out at 0.969 ± 0.1.

As to “A0A087WZ97|A0A087WZK6|A0A087X2C2|Q5T7M9 (UniProt Q5T7M9)”, the NP40-soluble protein abundance was determined as 1.07 ± 0.068.

As for A0A087WYB4|Q9UJZ1 (UniProt Q9UJZ1), the NP40-soluble protein abundance came to 1.02 ± 0.048.

Turning to “A0A087X0R0|F5H6S1 and related entries (UniProt O15550)”, the NP40-soluble protein abundance stood at 1.15 ± 0.083.

In the case of A0A0C4DGS1|P39656 (UniProt P39656), the NP40-soluble protein abundance worked out at 0.963 ± 0.089.

For the target “A0A087WXC5|E7ESZ7 and related entries (UniProt O95299)”, the NP40-soluble protein abundance stood at 1.04 ± 0.097.

Regarding A0A0B4J2A0|Q9UHJ6 (UniProt Q9UHJ6), the NP40-soluble protein abundance stood at 0.981 ± 0.083.

As for A0A0C4DGH6|A0JNW5 (UniProt A0JNW5), the NP40-soluble protein abundance was found to be 1.02 ± 0.12.

Take “A0A0A0MQT4|Q5QP82 and related entries (UniProt Q5QP82)”: the NP40-soluble protein abundance was 0.984 ± 0.026.

“A0A0G2JLB3|A0A0G2JNZ5|P04062 and related entries (UniProt P04062)”: the NP40-soluble protein abundance came out at 1.14 ± 0.19.

For UniProt A5PLN9 and related entries, the NP40-soluble protein abundance came to 0.954 ± 0.05.

Still in this assay, the particulars now being: concentration: 4mM.
In the case of “A0A096LP75|C4AMC7 and related entries (UniProt Q6VEQ5+C4AMC7)”, the NP40-soluble protein abundance stood at 0.989 ± 0.011.

Regarding A0A140T9R1|O75955 (UniProt O75955), the NP40-soluble protein abundance was 1.26 ± 0.27.

For “A0A0A0MQS0|A8MW92 and related entries (UniProt A8MW92)”, the NP40-soluble protein abundance is 1.37 ± 0.021.

Regarding A0A0C4DGT4|Q643R3 (UniProt Q643R3), the NP40-soluble protein abundance was found to be 0.874 ± 0.099.

As for A0A0C4DGV9|P49917 (UniProt P49917), the NP40-soluble protein abundance worked out at 1.32 ± 0.22.

For “A0A087X127|E7EWM3 and related entries (UniProt Q8NF64)”, the NP40-soluble protein abundance was 0.868 ± 0.12.

In the case of CCDC88B (UniProt A6NC98), the NP40-soluble protein abundance was 0.948 ± 0.035.

Regarding “A0A0A0MRC4|A0A0A0MSK4|Q86YR5 and related entries (UniProt Q86YR5)”, the NP40-soluble protein abundance came to 0.876 ± 0.045.

For “A0A087WZ62|Q9H6U8 and related entries (UniProt Q9H6U8)”, the NP40-soluble protein abundance was found to be 0.978 ± 0.16.

On to “A0A0D9SFR6|Q86XP1 and related entries (UniProt Q86XP1)”, for which the NP40-soluble protein abundance was 0.938 ± 0.1.

On to A0A087WXN9|Q765P7 (UniProt Q765P7), for which the NP40-soluble protein abundance was determined as 1.09 ± 0.052.

Turning to “A0A5E8 and related entries (UniProt Q99501)”, the NP40-soluble protein abundance was 1.3 ± 0.086.

Regarding “A0A0A6YYC7|Q96JP5 and related entries (UniProt Q96JP5)”, the NP40-soluble protein abundance amounted to 0.904 ± 0.087.

A0A0A0MRN1|Q5T8I9 (UniProt Q5T8I9): the NP40-soluble protein abundance came out at 0.908 ± 0.12.

As for UniProt A2RTX5 and related entries, the NP40-soluble protein abundance was found to be 1.25 ± 0.053.

Take “A0A0A0MRE5|Q9ULH1 and related entries (UniProt Q9ULH1)”: the NP40-soluble protein abundance came to 0.987 ± 0.04.

“A0A0A0MQU0|K7EIR0 and related entries (UniProt Q9BV38)”: the NP40-soluble protein abundance was found to be 0.994 ± 0.033.

“A6NCC9 and related entries (UniProt Q9Y5U2)”: the NP40-soluble protein abundance was determined as 1.15 ± 0.041.

As for A0A096LPA2|P30566 (UniProt P30566), the NP40-soluble protein abundance came to 0.919 ± 0.045.

“A0A0A0MS45|J3KNI1 and related entries (UniProt Q9H9E3)”: the NP40-soluble protein abundance was 0.993 ± 0.039.

For A0A0C4DFX9|Q9H3P2 (UniProt Q9H3P2), the NP40-soluble protein abundance was 0.952 ± 0.057.

Consider “A0A087X0H7|Q8NEL9 and related entries (UniProt Q8NEL9)”, for which the NP40-soluble protein abundance is 1.01 ± 0.026.

With A0A140T9T7|Q03518 (UniProt Q03518), the NP40-soluble protein abundance was 1.07 ± 0.062.

As for “A0A0D9SFK2|Q92614 and related entries (UniProt Q92614)”, the NP40-soluble protein abundance turned out to be 1.02 ± 0.081.

Consider UniProt A3KMH1 and related entries, for which the NP40-soluble protein abundance turned out to be 1.06 ± 0.095.

Turning to “A0A0A0MSQ0|H7C4N2 and related entries (UniProt P13797)”, the NP40-soluble protein abundance was determined as 0.874 ± 0.076.

For A0A0X1KG71|Q8WX92 (UniProt Q8WX92), the NP40-soluble protein abundance was determined as 0.957 ± 0.025.

Turning to “A0A0C4DGS5|Q08379 and related entries (UniProt Q08379)”, the NP40-soluble protein abundance stood at 0.943 ± 0.068.

For “A0A087WZ97|A0A087WZK6|A0A087X2C2|Q5T7M9 (UniProt Q5T7M9)”, the NP40-soluble protein abundance turned out to be 1.05 ± 0.1.

In the case of A0A087WYB4|Q9UJZ1 (UniProt Q9UJZ1), the NP40-soluble protein abundance turned out to be 0.999 ± 0.091.

With “A0A087X0R0|F5H6S1 and related entries (UniProt O15550)”, the NP40-soluble protein abundance came to 1.13 ± 0.052.

With A0A0C4DGS1|P39656 (UniProt P39656), the NP40-soluble protein abundance stood at 0.968 ± 0.067.

Turning to “A0A087WXC5|E7ESZ7 and related entries (UniProt O95299)”, the NP40-soluble protein abundance is 1.01 ± 0.069.

As to A0A0B4J2A0|Q9UHJ6 (UniProt Q9UHJ6), the NP40-soluble protein abundance turned out to be 0.978 ± 0.085.

For A0A0C4DGH6|A0JNW5 (UniProt A0JNW5), the NP40-soluble protein abundance stood at 0.929 ± 0.11.

With “A0A0A0MQT4|Q5QP82 and related entries (UniProt Q5QP82)”, the NP40-soluble protein abundance is 0.928 ± 0.036.

Regarding “A0A0G2JLB3|A0A0G2JNZ5|P04062 and related entries (UniProt P04062)”, the NP40-soluble protein abundance worked out at 0.972 ± 0.049.

Regarding UniProt A5PLN9 and related entries, the NP40-soluble protein abundance came to 0.969 ± 0.073.

(Values after the supplement of paper PMC6411743.)
